Data source: PubChem BioAssay AID504786 (Drosophila RNAi Screening Center, 2011)
Assay: 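Knock-downs reducing HIF reporter induction by the iron chelator DFO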 (primary screen). Cells: Drosophila S2 cells with a stable HIF luciferase reporter. Knock-down reagent: long dsRNA against Drosophila genes, about 0.2 µg dsRNA per well of a 384-well plate. Timing: three days of knock-down, then 20 h of DFO before reading. Challenge: desferrioxamine (DFO) at 100 µM, an iron chelator that mimics hypoxia, for 20 h. Measurement: 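Firefly luciferase driven by the mouse ldh-a hypoxia-response element, measured after 20 h of 100 µM DFO; z-scores per plate, higher means more signal lost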. Direction: z-score: higher = stronger loss of HIF reporter signal.
The screen tested about 21,000 reagents; below is an unselected part of those that have a named target and a result. 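Primary screen; positive scores mean lost reporter signal, so the sign may be inverted from the usual convention.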 Names joined by + are all predicted targets of the reagent. Further read-outs or replicates are left out here.

no.	Target gene	dsRNA	z-score, replicate 1	z-score, replicate 2	z-score, replicate 3
1	mre11	DRSC03570	-0.4	-0.3	-0.7
2	mRpL20	DRSC09828	1	1.1	
3	Syt4	DRSC12606	-0.3	0	
4	Cyp9b1	DRSC07389	-0.3	-0.5	
5	CG13124	DRSC02220	-0.2	-0.4	
6	elfless	DRSC02451	-0.1	0.1	
7	ttm3	DRSC03736	-0.3	0.1	
8	CG10561	DRSC02068	-0.2	-0.3	
9	Prosbeta7	DRSC12186	4.4	4.5	
10	CG33500	DRSC09115	-0.1	-0.7	
11	CG42527 (retired record) + Hr4	DRSC18495	-0.4	-0.6	1.8
12	beta-PheRS	DRSC15859	0.3	0.4	
13	RpL9	DRSC03418	4.5	5.7	
14	Ada2b	DRSC16531	0	0.5	
15	CG32432	DRSC11703	3.1	0.1	
16	CG32432	DRSC11704	2.4	0.1	
17	CG32432	DRSC11744	-0.3	-0.5	
18	dgt3	DRSC04349	0	-0.1	
19	CG34033	DRSC05190	-0.1	-0.1	
20	CG5334	DRSC19941	-0.3	-0.8	
21	CG9649	DRSC16534	-0.2	-0.4	
22	BomT3	DRSC13537	-0.4	-0.2	
23	BomT3	DRSC15871	-0.4	-0.1	
24	CG3919	DRSC10389	-0.1	-0.2	
25	ATPsynE	DRSC15476	0	0.2	
26	Obp56i	DRSC05812	-0.5	-0.2	
27	Femcoat	DRSC18061	-0.2	-0.2	
28	hpRNA:CR32207	DRSC09616	0.1	-0.1	
29	Acbp2	DRSC11141	-0.2	0	
30	nAChRalpha7	DRSC20078	-0.4	-0.2	
31	nAChRalpha7	DRSC20081	-0.3	-0.2	
32	CG31949	DRSC00110	-0.1	-0.3	
33	TwdlF	DRSC12225	-0.3	-0.4	
34	CG15909	DRSC04977	0.2	-0.4	
35	mon2	DRSC03112	-0.5	-0.6	
36	Syx13	DRSC09836	-0.2	0.9	
37	Klc	DRSC11203	-0.3	-0.4	
38	Tpr2	DRSC03461	0	-0.3	
39	CG17359	DRSC10265	-0.1	0.1	
40	sdt	DRSC17555	0.1	-0.1	
41	sdt	DRSC17556	-0.3	-0.3	
42	sdt	DRSC17860	-0.2	-0.2	
43	sdt	DRSC17861	-0.3	-0.3	
44	sdt	DRSC18022	-0.3	-0.8	
45	sdt	DRSC18025	-0.1	0.6	
46	sdt	DRSC18026	-0.1	0.6	
47	sdt	DRSC18027	-0.2	-0.4	
48	sdt	DRSC18108	-0.2	-0.5	
49	lark	DRSC11362	-0.1	0.4	
50	Lpin	DRSC07241	-0.3	-0.4	
51	nac	DRSC16520	-0.4	-0.1	
52	bcn92	DRSC18741	-0.1	-0.1	
53	CG31559	DRSC12172	0	0.3	
54	CG31559	DRSC12270	-0.1	0.4	
55	cos	DRSC07598	-0.3	-0.7	
56	Prosbeta6	DRSC11256	6.3	5.3	
57	CG1785	DRSC18139	-0.4	0.7	
58	RpL10Aa	DRSC15518	1.7	0.3	
59	Mal-A4	DRSC07236	-0.3	-0.2	
60	apt	DRSC04671	1.2	2.3	
61	CG13679	DRSC10037	-0.2	-0.2	-0.2
62	Ravus	DRSC15126	-0.6	-1.1	
63	Sbp2	DRSC10766	-0.1	-0.7	
64	CG34342	DRSC09756	-0.3	-0.7	
65	CG15414	DRSC00429	-0.4	-0.4	
66	IntS9	DRSC10493	-0.3	-0.6	
67	sowah	DRSC09186	-0.1	0.7	
68	sowah	DRSC09758	-0.3	-0.3	
69	CG10700	DRSC02096	-0.2	-0.4	
70	CG14362	DRSC14824	-0.4	0.8	
71	Oatp33Ea	DRSC02859	-0.4	0	
72	Ser6	DRSC20574	-0.1	-0.3	
73	Arp10	DRSC19448	-0.1	0	
74	CG12069	DRSC14470	-0.3	-0.3	
75	CG18539	DRSC06766	-0.4	-0.8	
76	CG13047	DRSC09928	-0.3	-0.3	
77	CG33969	DRSC11777	-0.3	-0.6	
78	PHDP	DRSC04635	-0.4	0.2	
79	geminin	DRSC04984	0	0	
80	CG31219	DRSC15140	-0.5	-0.1	
81	Tcs6 + PIG-P	DRSC13742	-0.1	-0.1	
82	Tcs6 + PIG-P	DRSC14893	-0.2	-0.3	
83	CG34384	DRSC12644	-0.4	0	
84	CG34384	DRSC14855	-0.1	-0.5	
85	CG34384	DRSC15444	-0.4	0	
86	CG34384	DRSC16575	-0.4	-0.2	

Individual results from the entries so far.
CG1785 [DRSC18139], z-score, replicate 2 = 0.7
For “z-score, replicate 2”, Klc [DRSC11203] is entered as -0.4
Value of CG34033 [DRSC05190] under “z-score, replicate 2”: -0.1
Under “z-score, replicate 1”, beta-PheRS [DRSC15859] reads 0.3
Result for CG34342 [DRSC09756] under “z-score, replicate 1”: -0.3
ATPsynE [DRSC15476], z-score, replicate 2 = 0.2
